Data taken from patent US11666547B2, “Methods for treating cognitive deficits in a subject having schizophrenia, bipolar disorder, or psychiatric depression, and exhibiting cognitive deficits by administering an antagonist of the Na+-K+-2Cl-cation-chloride cotransporter isoform 1 (NKCC1)” (NORTHWESTERN UNIVERSITY, priority 2019, dated 2023).
For at least one compound, name, drawing or mass did not settle the structure.

Key:
scPCP mice = test: Novel object recognition (NOR) test in subchronic phencyclidine (scPCP) mice; format: in vivo, C57BL/6J mice; conditions: PCP animals treated with lurasidone
Procedure: FIG. 7. Bumetanide treatment rescues the cognitive impairment in scPCP mice. Discrimination index calculated from novel object recognition tests. […] 10 mice were measured for each experimental group.
FIG. 8. Bumetanide rescues Novel Object Recognition task in female scPCP mice. […] Data are from 9 mice per group. One-way ANOVA followed by post-hoc bonferroni correction was done where significance was observed. p<0.01. (Additional data not shown).
To begin filling this gap, here we took advantage of the subchronic phencyclidine (scPCP) treatment, which is a well-established established rodent model of cognitive deficits in schizophrenia (Jentsch and Roth, 1999; Steeds et al. 2015) and performed patch clamp recordings from pyramidal neurons in acute slices of the IL cortex (ILC) and PL cortex (PLC). (FIG. 1).
Routine for mPFC recording. 3 week-old mice were injected with saline (vehicle) or PCP (0.1 mg/kg) two times a day for 7 consecutive days and rested for another 7 days without injections. They were then sacrificed for recordings within 7 days.

[1] = system: pyramidal neurons of the infralimbic cortex (ILC) of scPCP mice; test: GABAA reversal potential (EGABA), perforated patch recordings in acute mPFC slices; format: cell-based; conditions: PCP animals treated with lurasidone
Procedure: FIG. 4. (A) Left Panels: Example traces of GABAA current response by electrical stimulation in mPFC pyramidal neurons in control (top panel, black) and in scPCP (bottom, red). Bipolar electrode was put in layer 1, 100-200 um apart from recording site within layer2/3 with presence of 3 mM kynurenic acid to block any glutamatergic synaptic currents. The response was evoked by the same size of single stimulus (0.2-1 mA, 0.2 ms) at five different holding voltages (−100, −80, −60, −40, −20 mV) for each neuron. For each voltage, a neuron was tested multiple times and those 5-10 traces tested at the same voltage were averaged later for peak analysis. […] Right Panels: Example GABAA reversal potential (EGABA) of a neuron in control (top panel, black) and in scPCP (bottom, red) calculated from traces shown in (A). For the individual neuron, the peak size of current responses was measured (maximal current peak if the evoked response is positive while minimal current peak if negative) and plotted by holding voltages. […] Dotted gray lines to present average resting potentials for each group, which were measured by whole-cell patch recordings from separated neuron groups (each n>7). […] Dotted gray lines represent the resting potentials, which were measured by whole-cell patch recordings in different sets of experiment (each n>7). […]

With O=C1[C@@H]2[C@H]3CC[C@H](C3)[C@@H]2C(=O)N1C[C@@H]1CCCC[C@H]1CN1CCN(c2nsc3ccccc23)CC1 [lurasidone] as the compound, how does the “Rescue of the behavior in PCP animals” value (scPCP mice) read?
The value was “rescues the behavior”.

And the “GABAA reversal potential in IL pyramidal cells” value [1]?
The value was “still shifted”.
